Assay results taken from ChEMBL document CHEMBL1141467, “Multi-target-directed ligands to combat neurodegenerative diseases” (J Med Chem, 2008).

Protein sequences, listed by entry. Tags and fused reporters are not part of them. Lines headed by an entry give the natural chain unless they say otherwise; changes in a name come on top.
UniProt P22303: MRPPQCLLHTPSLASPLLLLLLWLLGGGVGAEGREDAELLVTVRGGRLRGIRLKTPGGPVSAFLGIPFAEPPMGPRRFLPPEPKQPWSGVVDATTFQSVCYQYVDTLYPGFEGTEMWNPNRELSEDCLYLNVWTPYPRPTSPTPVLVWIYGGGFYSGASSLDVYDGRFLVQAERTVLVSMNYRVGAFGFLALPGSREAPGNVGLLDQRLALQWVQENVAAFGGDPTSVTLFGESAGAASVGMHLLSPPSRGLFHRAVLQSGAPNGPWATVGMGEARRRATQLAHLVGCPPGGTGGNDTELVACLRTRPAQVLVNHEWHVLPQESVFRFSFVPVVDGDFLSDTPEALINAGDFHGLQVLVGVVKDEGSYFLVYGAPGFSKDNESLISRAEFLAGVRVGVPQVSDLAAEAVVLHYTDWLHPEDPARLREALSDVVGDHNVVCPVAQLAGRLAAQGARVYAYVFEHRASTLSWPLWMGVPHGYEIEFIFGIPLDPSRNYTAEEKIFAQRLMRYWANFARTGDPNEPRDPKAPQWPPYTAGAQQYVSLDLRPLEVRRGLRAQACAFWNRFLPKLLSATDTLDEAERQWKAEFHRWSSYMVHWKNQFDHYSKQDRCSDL

Target: Acetylcholinesterase (Homo sapiens, UniProt P22303)

Cc1c(C)c2ccc(OCc3cccc(Cl)c3)cc2oc1=O
IC50: 3.39 µM
